The supplement of paper PMC6078165
Values are relative to the signal before dosing, not to a vehicle control; the signal also falls without drug.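 Fibroblast labels denote human fibroblasts, mainly primary ones from uterus (C12385, HUF), lung (H6013), bone (Hs27A), adrenal (HADF) and skin (WS1), plus mammary HMF and breast cancer-associated Hs343T. Cancer cells are basal-like or mesenchymal-like triple-negative breast cancer lines. A hit is a response shift exceeding 3x replicate standard deviation. The tissue of the other fibroblasts is not given here.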

Test system: MDAMB231
Experiment: relative JC-1 red fluorescence (viability) vs pre-drug, coculture with fibroblast (fraction); higher = more viable cancer cells
Method: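 JC-1 labelled TNBC cells cocultured 1:1 (1,500 cells each) with CellTrace Violet stained primary or stromal fibroblasts in 384-well plates in FluoroBrite medium, treated with one of 42 anticancer drugs at 0.1, 1, 10 or 100 uM. JC-1 red fluorescence (mitochondrial integrity in cancer cells only) was read by plate reader every 8 h for 72 h. Values are normalised to each well's pre-drug value. The stock of one drug was tenfold lower, so its dose labels may be too high.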

C#Cc1cccc(Nc2ncnc3cc(OCCOC)c(OCCOC)cc23)c1 [Erlotinib]
relative JC-1 red fluorescence
Conditions	8 h	16 h	24 h	32 h	40 h	48 h	56 h	64 h	72 h
0.1 µM, coculture fibroblast: C12385	0.781	0.749	0.681	0.673	0.628	0.605	0.558	0.552	0.537
0.1 µM, coculture fibroblast: H6013	0.9027	0.847	0.822	0.809	0.776	0.73	0.72	0.686	0.637
0.1 µM, coculture fibroblast: H6019	0.749	0.6955	0.626	0.629	0.584	0.567	0.518	0.502	0.463
0.1 µM, coculture fibroblast: H6076	0.8927	0.814	0.747	0.714	0.676	0.642	0.611	0.582	0.5672
0.1 µM, coculture fibroblast: H6231	0.913	0.894	0.822	0.764	0.72	0.677	0.633	0.61	0.571
0.1 µM, coculture fibroblast: HADF	0.894	0.8356	0.789	0.753	0.716	0.673	0.671	0.655	0.61603
0.1 µM, coculture fibroblast: HCFa	0.895	0.824	0.786	0.763	0.72	0.684	0.654	0.634	0.595
0.1 µM, coculture fibroblast: HCPF	0.927	0.821	0.739	0.711	0.651	0.602	0.567	0.537	0.512
0.1 µM, coculture fibroblast: HHSteC	0.9002	0.853	0.8046	0.7487	0.704	0.669	0.626	0.601	0.557
0.1 µM, coculture fibroblast: HMF	0.8681	0.7951	0.729	0.6903	0.6496	0.608	0.567	0.545	0.527
0.1 µM, coculture fibroblast: HPFa	0.9431	0.8898	0.8211	0.7764	0.7513	0.722	0.662	0.625	0.5619
0.1 µM, coculture fibroblast: HUF	0.865	0.805	0.868	0.791	0.762	0.763	0.724	0.737	0.735
0.1 µM, coculture fibroblast: Hs5	0.912	0.847	0.796	0.752	0.703	0.647	0.602	0.569	0.542
0.1 µM, coculture fibroblast: Hs27A	0.8816	0.82687	0.792	0.754	0.701	0.605	0.637	0.615	0.563
0.1 µM, coculture fibroblast: Hs343T	0.895	0.82	0.762	0.723	0.675	0.63	0.58	0.556	0.527
0.1 µM, coculture fibroblast: WS1	0.758	0.701	0.586	0.591	0.545	0.513	0.46	0.446	0.421
1 µM, coculture fibroblast: C12385	0.7689	0.77	0.704	0.7247	0.593	0.421	0.401	0.414	0.413
1 µM, coculture fibroblast: H6013	0.906	0.854	0.8145	0.804	0.782	0.758	0.7703	0.7343	0.6943
1 µM, coculture fibroblast: H6019	0.78	0.768	0.752	0.765	0.727	0.7294	0.696	0.688	0.64
1 µM, coculture fibroblast: H6076	0.8979	0.8488	0.8345	0.81632	0.7856	0.7578	0.743	0.7159	0.7044
1 µM, coculture fibroblast: H6231	0.94	0.887	0.868	0.841	0.803	0.773	0.75	0.738	0.71
1 µM, coculture fibroblast: HADF	0.9239	0.8763	0.8471	0.824	0.783	0.732	0.734	0.722	0.68
1 µM, coculture fibroblast: HCFa	0.9017	0.842	0.823	0.795	0.747	0.71	0.684	0.664	0.622
1 µM, coculture fibroblast: HCPF	0.879	0.838	0.818	0.806	0.75	0.717	0.693	0.652	0.638
1 µM, coculture fibroblast: HHSteC	0.8968	0.874	0.851	0.826	0.803	0.776	0.745	0.728	0.688
1 µM, coculture fibroblast: HMF	0.8742	0.844	0.848	0.829	0.808	0.789	0.782	0.776	0.762
1 µM, coculture fibroblast: HPFa	0.935	0.9103	0.8783	0.8337	0.818	0.793	0.7489	0.7254	0.6854
1 µM, coculture fibroblast: HUF	0.85	0.762	0.772	0.7089	0.6593	0.648	0.613	0.588	0.569
1 µM, coculture fibroblast: Hs5	0.9	0.859	0.843	0.804	0.777	0.735	0.711	0.684	0.66
1 µM, coculture fibroblast: Hs27A	0.89636	0.869	0.842	0.822	0.781	0.702	0.723	0.7	0.656
1 µM, coculture fibroblast: Hs343T	0.88	0.823	0.803	0.777	0.7351	0.69559	0.6688	0.6523	0.634
1 µM, coculture fibroblast: WS1	0.7483	0.743	0.6508	0.683	0.671	0.649	0.616	0.597	0.566
